From PMC10247366 come the findings set out here.

Amino acid sequences for entries named in this document (tags omitted). A change or cut given only in a name is not applied to a line headed by its entry.
UniProt Q9H6L5, whole entry: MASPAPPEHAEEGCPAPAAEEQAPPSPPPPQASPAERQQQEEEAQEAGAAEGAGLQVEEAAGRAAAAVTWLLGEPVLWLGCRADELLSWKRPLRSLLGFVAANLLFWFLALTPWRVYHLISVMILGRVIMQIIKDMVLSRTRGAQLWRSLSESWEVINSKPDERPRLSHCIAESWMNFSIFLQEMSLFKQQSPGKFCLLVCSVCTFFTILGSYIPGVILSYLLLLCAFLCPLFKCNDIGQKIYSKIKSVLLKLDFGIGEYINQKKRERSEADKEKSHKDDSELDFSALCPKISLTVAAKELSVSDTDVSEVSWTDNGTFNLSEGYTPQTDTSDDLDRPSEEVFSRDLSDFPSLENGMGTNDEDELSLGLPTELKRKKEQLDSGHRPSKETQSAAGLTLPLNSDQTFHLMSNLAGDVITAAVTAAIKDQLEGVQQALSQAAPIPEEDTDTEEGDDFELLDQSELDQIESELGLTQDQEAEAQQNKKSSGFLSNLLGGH

Experiment [1] concerns the target HA–FAM134B WT (UniProt Q9H6L5). Put plainly: high-molecular-weight (oligomeric, SDS-resistant) species on immunoblot; HA–FAM134B IP from HEK 293T lysate, SDS–PAGE, immunoblot, densitometry of the oligomers. A general note: A western blot detects proteins with antibodies after separation by electrophoresis.
Experiment [2] addresses HA–FAM134B WT (UniProt Q9H6L5). Nature of the experiment: high-molecular-weight species on immunoblot; U2OS or HeLa cells stably expressing HA-FAM134B WT or the LIR mutant (doxycycline-inducible), DMSO or 200 nM BafA1 for 6 h; western blot.

Results are given in words; binding and its absence hold for the method and conditions named. Some results given as binding are weak or reduced against the parent protein; the word gives no strength.

“HA–FAM134B WT (from UniProt Q9H6L5 1-497)”: the binding entry with HA–FAM134B WT [1] and in the experiment with HA–FAM134B WT [2] was “binds” each time.
